Data from the supplement of paper PMC6411743.
± gives the standard deviation of the averaged measurements. This is one part of the list.

Chains of the proteins cited; added tags and fusions are not shown. Lines headed by an entry give the natural chain unless they say otherwise; changes in a name come on top.
UniProt Q9BQC3: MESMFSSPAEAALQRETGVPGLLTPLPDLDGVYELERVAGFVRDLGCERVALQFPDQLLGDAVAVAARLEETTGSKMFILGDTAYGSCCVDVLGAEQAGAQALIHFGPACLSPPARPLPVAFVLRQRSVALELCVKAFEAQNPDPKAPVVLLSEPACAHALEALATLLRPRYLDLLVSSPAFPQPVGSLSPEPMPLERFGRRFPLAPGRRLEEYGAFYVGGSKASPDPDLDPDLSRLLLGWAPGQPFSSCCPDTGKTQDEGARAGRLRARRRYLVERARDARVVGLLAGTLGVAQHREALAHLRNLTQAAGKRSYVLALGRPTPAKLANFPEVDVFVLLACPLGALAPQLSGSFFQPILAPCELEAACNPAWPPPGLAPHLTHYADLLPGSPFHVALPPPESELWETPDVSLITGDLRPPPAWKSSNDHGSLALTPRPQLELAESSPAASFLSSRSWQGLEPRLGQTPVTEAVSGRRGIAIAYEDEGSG
UniProt Q99496: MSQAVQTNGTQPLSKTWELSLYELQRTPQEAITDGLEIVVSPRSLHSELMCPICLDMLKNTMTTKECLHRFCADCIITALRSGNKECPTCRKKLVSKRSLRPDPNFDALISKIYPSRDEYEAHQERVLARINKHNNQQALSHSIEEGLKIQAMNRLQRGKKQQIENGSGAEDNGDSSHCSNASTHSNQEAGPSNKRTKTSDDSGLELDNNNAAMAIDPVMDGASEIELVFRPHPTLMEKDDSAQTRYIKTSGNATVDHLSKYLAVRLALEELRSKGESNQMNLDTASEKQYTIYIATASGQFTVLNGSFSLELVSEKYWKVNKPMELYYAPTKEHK
UniProt Q96L91, whole entry: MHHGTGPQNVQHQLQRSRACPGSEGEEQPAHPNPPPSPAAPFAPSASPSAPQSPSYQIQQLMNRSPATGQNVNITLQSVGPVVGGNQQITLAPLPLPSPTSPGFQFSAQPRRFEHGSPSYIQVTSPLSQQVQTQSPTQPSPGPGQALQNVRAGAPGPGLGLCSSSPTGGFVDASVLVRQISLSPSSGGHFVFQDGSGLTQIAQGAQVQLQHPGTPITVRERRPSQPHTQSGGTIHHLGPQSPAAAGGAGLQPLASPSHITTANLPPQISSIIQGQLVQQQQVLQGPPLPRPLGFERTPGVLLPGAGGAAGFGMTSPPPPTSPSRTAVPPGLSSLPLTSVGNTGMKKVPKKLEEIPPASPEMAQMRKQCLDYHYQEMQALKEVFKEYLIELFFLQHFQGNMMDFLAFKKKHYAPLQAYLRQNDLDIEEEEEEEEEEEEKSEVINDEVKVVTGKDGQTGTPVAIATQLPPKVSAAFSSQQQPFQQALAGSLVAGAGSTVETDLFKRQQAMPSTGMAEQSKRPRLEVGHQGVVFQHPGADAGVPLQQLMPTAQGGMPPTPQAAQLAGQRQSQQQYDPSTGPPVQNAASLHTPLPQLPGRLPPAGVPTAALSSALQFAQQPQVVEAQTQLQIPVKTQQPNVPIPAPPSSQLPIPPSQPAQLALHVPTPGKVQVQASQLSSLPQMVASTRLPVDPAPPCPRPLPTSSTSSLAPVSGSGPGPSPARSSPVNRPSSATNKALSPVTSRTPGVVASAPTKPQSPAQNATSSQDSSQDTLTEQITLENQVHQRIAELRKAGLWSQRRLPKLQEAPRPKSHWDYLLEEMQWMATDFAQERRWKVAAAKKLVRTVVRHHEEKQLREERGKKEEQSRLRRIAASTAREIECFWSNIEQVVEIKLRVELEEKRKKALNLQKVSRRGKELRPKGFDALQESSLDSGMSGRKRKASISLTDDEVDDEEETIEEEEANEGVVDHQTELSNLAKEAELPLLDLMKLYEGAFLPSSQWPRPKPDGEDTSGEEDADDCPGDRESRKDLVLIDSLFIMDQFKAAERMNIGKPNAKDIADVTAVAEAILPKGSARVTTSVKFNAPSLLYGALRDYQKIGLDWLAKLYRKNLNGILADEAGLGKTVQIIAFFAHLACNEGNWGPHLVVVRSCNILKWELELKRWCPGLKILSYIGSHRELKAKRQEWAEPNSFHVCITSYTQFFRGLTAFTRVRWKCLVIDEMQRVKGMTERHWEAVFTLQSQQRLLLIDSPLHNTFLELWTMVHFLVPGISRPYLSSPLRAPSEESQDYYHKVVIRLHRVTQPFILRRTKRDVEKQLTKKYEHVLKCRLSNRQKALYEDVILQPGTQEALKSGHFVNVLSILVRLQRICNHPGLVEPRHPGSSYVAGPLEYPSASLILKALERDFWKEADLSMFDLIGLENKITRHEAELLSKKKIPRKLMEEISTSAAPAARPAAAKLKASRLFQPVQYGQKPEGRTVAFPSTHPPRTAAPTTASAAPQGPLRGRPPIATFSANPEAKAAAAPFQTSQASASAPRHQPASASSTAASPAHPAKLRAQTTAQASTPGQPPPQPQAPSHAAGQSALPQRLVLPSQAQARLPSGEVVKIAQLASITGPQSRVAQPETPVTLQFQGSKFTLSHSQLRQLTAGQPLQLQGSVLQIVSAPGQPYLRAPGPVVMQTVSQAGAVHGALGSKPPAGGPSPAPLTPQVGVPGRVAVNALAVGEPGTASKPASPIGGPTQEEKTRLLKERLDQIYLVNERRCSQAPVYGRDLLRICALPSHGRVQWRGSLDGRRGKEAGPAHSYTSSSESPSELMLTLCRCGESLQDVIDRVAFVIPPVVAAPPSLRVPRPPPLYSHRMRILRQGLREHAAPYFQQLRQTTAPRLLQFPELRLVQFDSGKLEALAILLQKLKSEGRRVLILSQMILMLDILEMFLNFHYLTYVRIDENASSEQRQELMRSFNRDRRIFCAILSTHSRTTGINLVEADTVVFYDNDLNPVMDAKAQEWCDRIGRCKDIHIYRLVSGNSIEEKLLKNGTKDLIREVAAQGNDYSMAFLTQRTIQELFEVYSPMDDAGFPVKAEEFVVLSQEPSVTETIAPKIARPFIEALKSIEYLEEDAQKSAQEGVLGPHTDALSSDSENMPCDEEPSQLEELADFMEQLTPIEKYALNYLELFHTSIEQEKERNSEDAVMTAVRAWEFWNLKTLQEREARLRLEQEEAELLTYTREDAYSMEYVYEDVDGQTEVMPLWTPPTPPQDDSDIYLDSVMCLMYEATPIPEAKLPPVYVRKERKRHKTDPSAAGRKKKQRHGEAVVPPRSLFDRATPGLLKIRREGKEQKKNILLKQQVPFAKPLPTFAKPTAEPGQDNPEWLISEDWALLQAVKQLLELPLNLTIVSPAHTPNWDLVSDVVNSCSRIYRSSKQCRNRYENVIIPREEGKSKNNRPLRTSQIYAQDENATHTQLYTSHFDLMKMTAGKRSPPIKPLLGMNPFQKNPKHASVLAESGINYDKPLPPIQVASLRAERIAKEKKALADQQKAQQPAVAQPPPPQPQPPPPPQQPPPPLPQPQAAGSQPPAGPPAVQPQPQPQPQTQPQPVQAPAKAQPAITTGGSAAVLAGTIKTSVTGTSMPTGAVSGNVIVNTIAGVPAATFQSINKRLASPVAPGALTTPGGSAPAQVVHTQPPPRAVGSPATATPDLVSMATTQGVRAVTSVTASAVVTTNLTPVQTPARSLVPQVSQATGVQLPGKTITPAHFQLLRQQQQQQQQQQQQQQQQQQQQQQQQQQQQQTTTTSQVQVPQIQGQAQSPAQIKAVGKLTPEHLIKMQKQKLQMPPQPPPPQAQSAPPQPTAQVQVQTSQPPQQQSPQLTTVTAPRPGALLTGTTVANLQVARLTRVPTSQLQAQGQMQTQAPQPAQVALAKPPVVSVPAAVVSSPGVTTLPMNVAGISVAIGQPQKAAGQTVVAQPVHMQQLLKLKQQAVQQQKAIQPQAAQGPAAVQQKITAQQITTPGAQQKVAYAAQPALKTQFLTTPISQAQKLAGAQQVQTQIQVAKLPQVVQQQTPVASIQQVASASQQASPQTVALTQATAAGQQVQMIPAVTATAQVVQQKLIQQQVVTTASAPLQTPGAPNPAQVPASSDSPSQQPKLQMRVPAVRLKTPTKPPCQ
UniProt Q9BT25: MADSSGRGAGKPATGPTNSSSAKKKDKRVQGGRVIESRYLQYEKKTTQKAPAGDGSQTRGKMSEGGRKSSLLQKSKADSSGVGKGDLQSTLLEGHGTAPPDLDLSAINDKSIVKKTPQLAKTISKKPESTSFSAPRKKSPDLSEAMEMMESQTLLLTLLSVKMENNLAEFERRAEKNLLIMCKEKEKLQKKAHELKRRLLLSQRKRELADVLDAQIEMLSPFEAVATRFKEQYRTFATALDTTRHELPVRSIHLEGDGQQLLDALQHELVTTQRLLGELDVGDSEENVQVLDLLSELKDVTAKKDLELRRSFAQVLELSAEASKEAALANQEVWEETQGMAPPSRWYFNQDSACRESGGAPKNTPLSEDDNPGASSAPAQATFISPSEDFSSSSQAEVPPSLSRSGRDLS
UniProt Q9BTU6: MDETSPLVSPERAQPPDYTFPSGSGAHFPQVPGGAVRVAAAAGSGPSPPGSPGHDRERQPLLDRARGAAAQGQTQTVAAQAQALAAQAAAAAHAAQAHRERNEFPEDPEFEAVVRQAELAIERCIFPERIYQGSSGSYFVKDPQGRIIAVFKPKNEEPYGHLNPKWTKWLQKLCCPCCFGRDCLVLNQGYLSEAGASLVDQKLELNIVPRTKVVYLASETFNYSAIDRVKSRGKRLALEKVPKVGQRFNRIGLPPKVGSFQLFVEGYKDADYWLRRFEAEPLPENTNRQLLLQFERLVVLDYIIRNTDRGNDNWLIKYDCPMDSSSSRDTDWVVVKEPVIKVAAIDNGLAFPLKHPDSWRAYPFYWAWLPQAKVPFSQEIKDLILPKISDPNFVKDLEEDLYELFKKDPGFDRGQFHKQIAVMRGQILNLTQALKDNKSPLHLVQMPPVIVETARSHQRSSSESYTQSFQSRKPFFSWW
UniProt Q9BSH5: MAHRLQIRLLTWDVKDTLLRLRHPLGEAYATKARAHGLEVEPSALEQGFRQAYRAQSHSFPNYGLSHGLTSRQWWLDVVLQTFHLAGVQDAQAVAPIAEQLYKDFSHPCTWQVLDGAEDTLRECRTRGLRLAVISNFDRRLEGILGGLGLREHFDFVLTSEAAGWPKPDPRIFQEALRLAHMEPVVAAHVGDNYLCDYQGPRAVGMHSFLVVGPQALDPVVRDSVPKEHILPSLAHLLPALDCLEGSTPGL
UniProt Q99570, whole entry: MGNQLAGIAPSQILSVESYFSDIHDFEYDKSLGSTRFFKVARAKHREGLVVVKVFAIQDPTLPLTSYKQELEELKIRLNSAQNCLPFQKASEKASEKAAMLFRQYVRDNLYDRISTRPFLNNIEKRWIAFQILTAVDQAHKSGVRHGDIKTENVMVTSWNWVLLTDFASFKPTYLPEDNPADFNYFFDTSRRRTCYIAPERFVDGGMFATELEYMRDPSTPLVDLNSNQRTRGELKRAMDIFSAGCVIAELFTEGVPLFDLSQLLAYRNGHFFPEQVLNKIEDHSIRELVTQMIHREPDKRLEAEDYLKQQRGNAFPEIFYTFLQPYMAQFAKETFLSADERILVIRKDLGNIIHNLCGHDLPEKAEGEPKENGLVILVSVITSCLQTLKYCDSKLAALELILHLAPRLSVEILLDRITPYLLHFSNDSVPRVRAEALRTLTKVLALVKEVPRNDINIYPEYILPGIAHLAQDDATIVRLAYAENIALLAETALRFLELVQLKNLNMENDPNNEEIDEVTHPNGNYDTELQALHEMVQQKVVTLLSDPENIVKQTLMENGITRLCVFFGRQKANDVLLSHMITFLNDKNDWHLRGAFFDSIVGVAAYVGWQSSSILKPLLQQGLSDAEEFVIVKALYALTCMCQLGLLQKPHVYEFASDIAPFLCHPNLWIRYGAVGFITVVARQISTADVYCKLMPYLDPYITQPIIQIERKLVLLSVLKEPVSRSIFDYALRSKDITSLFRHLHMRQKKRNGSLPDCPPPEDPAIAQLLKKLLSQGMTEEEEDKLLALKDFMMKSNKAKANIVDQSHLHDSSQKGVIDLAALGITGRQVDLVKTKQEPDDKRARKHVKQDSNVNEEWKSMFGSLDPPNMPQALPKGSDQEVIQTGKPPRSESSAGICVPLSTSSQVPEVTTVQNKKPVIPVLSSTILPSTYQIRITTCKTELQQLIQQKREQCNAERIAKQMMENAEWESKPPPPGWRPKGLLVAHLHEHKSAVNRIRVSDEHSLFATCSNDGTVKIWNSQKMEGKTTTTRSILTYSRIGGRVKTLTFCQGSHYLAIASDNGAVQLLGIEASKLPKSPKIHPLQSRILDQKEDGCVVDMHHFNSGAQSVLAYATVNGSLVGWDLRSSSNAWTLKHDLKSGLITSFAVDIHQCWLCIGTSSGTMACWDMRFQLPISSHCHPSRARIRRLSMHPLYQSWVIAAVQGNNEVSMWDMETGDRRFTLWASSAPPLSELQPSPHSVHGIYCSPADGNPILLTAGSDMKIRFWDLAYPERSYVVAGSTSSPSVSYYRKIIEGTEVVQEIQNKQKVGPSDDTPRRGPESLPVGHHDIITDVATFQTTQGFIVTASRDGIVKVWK

Compound: Nc1nc2c(ncn2[C@@H]2O[C@H](COP(=O)(O)OP(=O)(O)OP(=O)(O)O)[C@@H](O)[C@H]2O)c(=O)[nH]1 [guanosine triphosphate]
Assay: NP40-soluble protein abundance relative to vehicle (solubility fold change) (ratio); higher = more soluble protein in presence of GTP
Outline: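 Each value is a fold change relative to the detergent-processed vehicle, calculated per replicate from vsn-normalised intensities. Jurkat crude lysate received eight concentrations (0.1 to 10 mM) for 10 min at room temperature and 3 min at 37 °C, then was solubilised in 0.8% NP40 with benzonase (60 min, 4 °C). The ultracentrifuged supernatant was TMT-labelled and run by LC-MS/MS in three independent experiments.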

Target	NP40-soluble protein abundance (concentration: 0.1mM)	NP40-soluble protein abundance (concentration: 0.5mM)	NP40-soluble protein abundance (concentration: 1mM)	NP40-soluble protein abundance (concentration: 2mM)	NP40-soluble protein abundance (concentration: 4mM)	NP40-soluble protein abundance (concentration: 6mM)	NP40-soluble protein abundance (concentration: 8mM)	NP40-soluble protein abundance (concentration: 10mM)
UniProt Q99523 and related entries	0.955 ± 0.012	0.926 ± 0.026	0.9811 ± 0.0087	0.967 ± 0.024	0.947 ± 0.066	0.973 ± 0.052	0.98 ± 0.043	1.02 ± 0.012
UniProt Q9BQC3 and related entries	1.07 ± 0.074	1.05 ± 0.054	0.974 ± 0.037	1.02 ± 0.078	1.08 ± 0.056	0.995 ± 0.079	1.03 ± 0.079	1.03 ± 0.12
ARPC5L (UniProt Q9BPX5)	0.926 ± 0.053	0.915 ± 0.05	1.1 ± 0.17	1.11 ± 0.11	1.09 ± 0.1	1.08 ± 0.076	1.02 ± 0.11	1.13 ± 0.15
NCAPG (UniProt Q9BPX3)	0.992 ± 0.015	1.06 ± 0.016	0.986 ± 0.03	1.03 ± 0.044	0.978 ± 0.042	1.01 ± 0.047	0.987 ± 0.056	1.01 ± 0.031
RNF2 (UniProt Q99496)	0.949 ± 0.03	1 ± 0.068	1.04 ± 0.092	1.05 ± 0.054	1.11 ± 0.09	1.2 ± 0.051	1.21 ± 0.055	1.21 ± 0.13
UniProt Q96L91 and related entries	1.03 ± 0.021	1.06 ± 0.04	1.12 ± 0.03	1.18 ± 0.061	1.24 ± 0.13	1.26 ± 0.14	1.32 ± 0.22	1.34 ± 0.23
ACBD6 (UniProt Q9BR61)	0.943 ± 0.063	0.911 ± 0.059	0.955 ± 0.053	0.952 ± 0.075	0.932 ± 0.11	0.935 ± 0.092	0.9 ± 0.08	0.949 ± 0.064
UniProt Q9BZE1 and related entries	1.08 ± 0.17	1.27 ± 0.38	1.19 ± 0.33	1.47 ± 0.59	1.46 ± 0.52	1.41 ± 0.51	1.26 ± 0.4	1.24 ± 0.42
UniProt Q96P11-2	1.04 ± 0.059	1.07 ± 0.051	1.04 ± 0.044	1.15 ± 0.053	1.19 ± 0.052	1.21 ± 0.068	1.19 ± 0.045	1.27 ± 0.07
MECR (UniProt Q9BV79)	1.02 ± 0.081	1.03 ± 0.082	0.967 ± 0.048	0.964 ± 0.087	0.976 ± 0.085	0.978 ± 0.066	0.962 ± 0.078	0.928 ± 0.065
UniProt Q9BT25 and related entries	0.8741 ± 0.0087	0.89 ± 0.026	1.03 ± 0.087	1.02 ± 0.044	0.953 ± 0.11	0.979 ± 0.048	0.999 ± 0.057	1.05 ± 0.11
PI4K2A (UniProt Q9BTU6)	1.04 ± 0.032	1.02 ± 0.069	0.91 ± 0.044	0.921 ± 0.062	0.94 ± 0.071	0.878 ± 0.069	0.86 ± 0.032	0.83 ± 0.12
TRMT61B (UniProt Q9BVS5)	1.13 ± 0.06	1.07 ± 0.096	1.04 ± 0.14	1.06 ± 0.057	1.09 ± 0.096	1.08 ± 0.087	1.03 ± 0.069	1.01 ± 0.025
UniProt Q9BRJ6 and related entries	1.17 ± 0.32	1.17 ± 0.37	1.19 ± 0.25	1.28 ± 0.33	1.2 ± 0.44	1.3 ± 0.48	1.18 ± 0.36	1.38 ± 0.53
DNAJC7 (UniProt Q99615)	0.981 ± 0.038	0.968 ± 0.051	0.975 ± 0.048	0.948 ± 0.056	0.93 ± 0.058	0.959 ± 0.064	0.977 ± 0.054	0.947 ± 0.056
UniProt Q9BSJ2 and related entries	1.09 ± 0.058	1.12 ± 0.14	1.17 ± 0.2	1.22 ± 0.23	1.28 ± 0.24	1.22 ± 0.31	1.23 ± 0.28	1.16 ± 0.29
ACAT2 (UniProt Q9BWD1)	0.926 ± 0.041	0.963 ± 0.028	0.901 ± 0.06	0.907 ± 0.043	0.85 ± 0.061	0.898 ± 0.056	0.871 ± 0.036	0.908 ± 0.04
HDHD3 (UniProt Q9BSH5)	0.988 ± 0.073	1.01 ± 0.045	0.985 ± 0.14	0.95 ± 0.078	0.941 ± 0.069	0.937 ± 0.033	0.917 ± 0.1	0.885 ± 0.084
UniProt Q9BTA9 and related entries	0.976 ± 0.076	0.888 ± 0.018	1.06 ± 0.045	1.03 ± 0.026	1.07 ± 0.028	1.02 ± 0.0059	1.08 ± 0.066	1.07 ± 0.087
PIK3R4 (UniProt Q99570)	1.06 ± 0.045	0.982 ± 0.028	0.988 ± 0.027	0.993 ± 0.022	0.983 ± 0.018	0.966 ± 0.035	0.937 ± 0.038	0.904 ± 0.023
UniProt Q9BQ15-2|Q9BQ15	1.01 ± 0.065	1.08 ± 0.28	1.12 ± 0.23	1.16 ± 0.36	1.14 ± 0.19	1.08 ± 0.25	1.16 ± 0.2	1.16 ± 0.27
UniProt Q96K76 and related entries	1.005 ± 0.0046	1.01 ± 0.014	0.9726 ± 0.0042	0.948 ± 0.025	0.955 ± 0.038	0.949 ± 0.035	0.937 ± 0.016	0.911 ± 0.045
RBM4 (UniProt Q9BWF3)	1.04 ± 0.056	1.06 ± 0.1	1.07 ± 0.085	1.02 ± 0.058	1.01 ± 0.088	1.06 ± 0.14	1.03 ± 0.063	0.972 ± 0.086
SMG1 (UniProt Q96Q15)	1.018 ± 0.0095	1.05 ± 0.063	1.02 ± 0.062	1.06 ± 0.021	1.08 ± 0.028	1.06 ± 0.047	1.09 ± 0.076	1.03 ± 0.065
UniProt Q9BWE0 and related entries	0.955 ± 0.095	1.02 ± 0.088	1.01 ± 0.087	1.06 ± 0.1	1.09 ± 0.064	1.02 ± 0.053	1.05 ± 0.038	1.077 ± 0.01
UniProt Q99871 and related entries	0.953 ± 0.053	0.935 ± 0.077	1.04 ± 0.044	1.01 ± 0.027	1.02 ± 0.083	0.993 ± 0.073	1 ± 0.13	0.979 ± 0.014
UniProt Q9BQI0 and related entries	0.975 ± 0.073	0.988 ± 0.089	1.03 ± 0.048	1.02 ± 0.067	0.947 ± 0.051	0.987 ± 0.077	0.938 ± 0.083	1.01 ± 0.074
MACROD1 (UniProt Q9BQ69)	0.962 ± 0.036	0.899 ± 0.045	0.961 ± 0.036	0.916 ± 0.07	0.897 ± 0.033	0.922 ± 0.066	0.855 ± 0.11	0.871 ± 0.11

Exported with each value named: entries from further up
UniProt Q9BQC3 and related entries
  NP40-soluble protein abundance (concentration: 0.1mM): 1.07 ± 0.074; NP40-soluble protein abundance (concentration: 0.5mM): 1.05 ± 0.054; NP40-soluble protein abundance (concentration: 1mM): 0.974 ± 0.037; NP40-soluble protein abundance (concentration: 2mM): 1.02 ± 0.078; NP40-soluble protein abundance (concentration: 4mM): 1.08 ± 0.056; NP40-soluble protein abundance (concentration: 6mM): 0.995 ± 0.079; NP40-soluble protein abundance (concentration: 8mM): 1.03 ± 0.079; NP40-soluble protein abundance (concentration: 10mM): 1.03 ± 0.12
ARPC5L (UniProt Q9BPX5)
  NP40-soluble protein abundance (concentration: 0.1mM): 0.926 ± 0.053; NP40-soluble protein abundance (concentration: 0.5mM): 0.915 ± 0.05; NP40-soluble protein abundance (concentration: 1mM): 1.1 ± 0.17; NP40-soluble protein abundance (concentration: 2mM): 1.11 ± 0.11; NP40-soluble protein abundance (concentration: 4mM): 1.09 ± 0.1; NP40-soluble protein abundance (concentration: 6mM): 1.08 ± 0.076; NP40-soluble protein abundance (concentration: 8mM): 1.02 ± 0.11; NP40-soluble protein abundance (concentration: 10mM): 1.13 ± 0.15
